From patent publication US20220259315A1
These are yes or no findings as the source states them, for the method shown. Some results given as binding are weak or reduced against the parent protein; the word gives no strength.

Molecular target: PD-1 M17
Test: flow cytometry, HeLa cells transiently transfected with PD-1 M17 [M17]

binding: binds
B1: 137F2 (antibody, V domains shown)
VH: QVQLQQPGAELVRPGTSVKMSCKAAGYTFTNYWIGWIKQRPGHGLEWIGDIYPGGGYTNYNEKFKGKATLTADTSSSTAYMQVSSLTSEDTGIYYCARGYDFVLDRWGQGTSVTVSS
VL: DIVMSQSPSSLAVSTGEKVTMTCKSSQSLFNSETQKNYLAWYQQKPGQPPKLLIFWASTRESGVPDRFLGSGSGTDFTLTISSVQAEDLAVYYCKQSYTLRTFGGGTKLEIK
